These are yes or no findings as the source states them, for the method shown. Some binding calls cover weakened binding; strength is not graded here.
How the values were obtained:
[1] = target: T1, PSGL-1(49-56)-Biotin (human) (UniProt Q14242); assay: ELISA, plate-immobilized biotin peptide
T1 sequence (peptide, C-terminal biotin, looked up): LDYDFLPE

Amino acid sequences for entries named in this document (tags omitted). A change or cut given only in a name is not applied to a line headed by its entry.
UniProt Q14242: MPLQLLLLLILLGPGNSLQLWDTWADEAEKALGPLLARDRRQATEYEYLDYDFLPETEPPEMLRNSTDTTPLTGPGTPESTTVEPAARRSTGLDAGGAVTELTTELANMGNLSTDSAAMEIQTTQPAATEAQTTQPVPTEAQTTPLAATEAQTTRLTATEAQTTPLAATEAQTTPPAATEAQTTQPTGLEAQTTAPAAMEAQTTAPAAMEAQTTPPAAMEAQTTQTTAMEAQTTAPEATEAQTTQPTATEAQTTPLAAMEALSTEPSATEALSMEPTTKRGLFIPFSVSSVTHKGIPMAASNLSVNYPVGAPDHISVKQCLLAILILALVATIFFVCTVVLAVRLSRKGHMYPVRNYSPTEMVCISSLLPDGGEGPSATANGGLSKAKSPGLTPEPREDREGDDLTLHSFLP

225-250 [2] = target: T2, 225-250; assay: ELISA, streptavidin-immobilized biotin peptide [cont.]
T2 sequence (peptide, N-terminal acetyl; C-terminal Lys-biotin): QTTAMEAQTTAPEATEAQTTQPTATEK

245-265 [3] = target: T3, 245-265; assay: as above
T3 sequence (peptide, N-terminal acetyl; C-terminal Lys-biotin): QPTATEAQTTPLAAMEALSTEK

PSGL-1(305-320) [4] = target: T4, PSGL-1(305-320); assay: as above
T4 sequence (peptide, N-terminal acetyl; C-terminal Lys-biotin): VNYPVGAPDHISVKQSK

63-80 [5] = target: T5, 63-80; assay: as above
T5 sequence (peptide, N-terminal acetyl; C-terminal Lys-biotin): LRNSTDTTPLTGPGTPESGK

165-190 [6] = target: T6, 165-190; assay: as above
T6 sequence (peptide, N-terminal acetyl; C-terminal Lys-biotin): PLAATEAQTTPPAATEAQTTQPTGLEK

[7] = target: T7, Biotin PSGL-1(56-70) peptide (human); assay: as above
T7 sequence (peptide, N-terminal acetyl; C-terminal Lys-biotin): ETEPPEMLRNSTDTTGK

PSGL-1(120-140) [8] = target: T8, PSGL-1(120-140); assay: as above
T8 sequence (peptide, N-terminal acetyl; C-terminal Lys-biotin): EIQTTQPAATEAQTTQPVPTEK

275-295 [9] = target: T9, 275-295; assay: as above
T9 sequence (peptide, N-terminal acetyl; C-terminal Lys-biotin): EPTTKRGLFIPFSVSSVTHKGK

185-210 [10] = target: T10, 185-210; assay: as above
T10 sequence (peptide, N-terminal acetyl; C-terminal Lys-biotin): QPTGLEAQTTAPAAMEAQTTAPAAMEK

260-280 [11] = target: T11, 260-280; assay: as above
T11 sequence (peptide, N-terminal acetyl; C-terminal Lys-biotin): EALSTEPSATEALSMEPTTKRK

75-95 [12] = target: T12, 75-95; assay: as above
T12 sequence (peptide, N-terminal acetyl; C-terminal Lys-biotin): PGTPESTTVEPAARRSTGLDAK

205-230 [13] = target: T13, 205-230; assay: as above
T13 sequence (peptide, N-terminal acetyl; C-terminal Lys-biotin): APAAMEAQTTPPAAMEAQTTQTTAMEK

131-150 = target: T14, 131-150; assay: as above
T14 sequence (peptide, N-terminal acetyl; C-terminal Lys-biotin): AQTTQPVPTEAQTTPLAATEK

PSGL-1(90-110) [14] = target: T15, PSGL-1(90-110); assay: as above
T15 sequence (peptide, N-terminal acetyl; C-terminal Lys-biotin): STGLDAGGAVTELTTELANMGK

145-170 [15] = target: T16, 145-170; assay: as above
T16 sequence (peptide, N-terminal acetyl; C-terminal Lys-biotin): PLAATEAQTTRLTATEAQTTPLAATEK

225-250 [16] = target: T2, 225-250; assay: ELISA, streptavidin-immobilized biotin peptide
245-265 [17] = target: T3, 245-265; assay: ELISA, streptavidin-immobilized biotin peptide
PSGL-1(305-320) [18] = target: T4, PSGL-1(305-320); assay: ELISA, streptavidin-immobilized biotin peptide
63-80 [19] = target: T5, 63-80; assay: ELISA, streptavidin-immobilized biotin peptide
165-190 [20] = target: T6, 165-190; assay: ELISA, streptavidin-immobilized biotin peptide
[21] = target: T7, Biotin PSGL-1(56-70) peptide (human); assay: ELISA, streptavidin-immobilized biotin peptide
PSGL-1(120-140) [22] = target: T8, PSGL-1(120-140); assay: ELISA, streptavidin-immobilized biotin peptide
275-295 [23] = target: T9, 275-295; assay: ELISA, streptavidin-immobilized biotin peptide
185-210 [24] = target: T10, 185-210; assay: ELISA, streptavidin-immobilized biotin peptide
260-280 [25] = target: T11, 260-280; assay: ELISA, streptavidin-immobilized biotin peptide
75-95 [26] = target: T12, 75-95; assay: ELISA, streptavidin-immobilized biotin peptide
205-230 [27] = target: T13, 205-230; assay: ELISA, streptavidin-immobilized biotin peptide
PSGL-1(90-110) [28] = target: T15, PSGL-1(90-110); assay: ELISA, streptavidin-immobilized biotin peptide
145-170 [29] = target: T16, 145-170; assay: ELISA, streptavidin-immobilized biotin peptide

B1: 18F02 (antibody, V domains shown)
VH: QVQLQQPGAELVKPGASVKLSCKASGYTFTSYWMHWVKQRPGQGLEWIGMIHPNSGRTNYNEKFKSKATLTVDKSSSTAYMQLSSLTSEDSAVYYCARSDYWGQGTTLTVSS
VL: DIVMTQAAFSNPVTLGTSASISCRSSKSLLHSDGITYLYWFLQRPGQSPQLLIYRMSNLASGVPDRFSGSGSGTDFTLRISRVEAEDVGVYYCAQMLEFPRTFGGGTKLEIK
binding [1]: binds | binding (225-250 [2]): no binding (tested: 10 nM) | binding (245-265 [3]): no binding (tested: 10 nM) | binding (PSGL-1(305-320) [4]): no binding (tested: 10 nM) | binding (63-80 [5]): no binding (tested: 10 nM) | binding (165-190 [6]): no binding (tested: 10 nM) | binding [7]: no binding (tested: 10 nM) | binding (PSGL-1(120-140) [8]): no binding (tested: Log M -7.7 (about 20 nM)) | binding (275-295 [9]): no binding (tested: 10 nM) | binding (185-210 [10]): no binding (tested: 10 nM) | binding (260-280 [11]): no binding (tested: 10 nM) | binding (75-95 [12]): no binding (tested: 10 nM) | binding (205-230 [13]): no binding (tested: 10 nM) | binding (131-150): no binding (tested: 10 nM) | binding (PSGL-1(90-110) [14]): no binding (tested: 10 nM) | binding (145-170 [15]): no binding (tested: 10 nM)

B2: 9F9 (antibody, V domains shown)
VH: EVQLVETGGGLVQPKGSLKLSCAASGFTFNTNAMNWVRQAPGKGLEWVARIRSKSNNYATYYADSVKDRFTISRDDTQSMIYLQMNNLKTEDTGMYYCVRGGSYWYFDVWGAGTTVTVSS
VL: DVLMTQTPLSLPVSLGDQASISCRSSQSIVNSNGNTYLEWYLQKPGQSPKLLIYKVSNRFSGVPDRFSGSGSGTDFTLKISRVEAEDLGVYYCFQGSHVPWTFGGGTKLEIK
binding [1]: binds

B3: 43B6 (antibody, V domains shown)
VH: EVQLQQSGPDLVKPGALVKISCKASGYSFTAYYIHWVKQSHGKSLEWIGRVNPNTGGTSYNPKFKGKAILNVDKSSSTAYMELRSLTSEDSAVYYCARSGSPYYRYDDWGQGTTLTVSS
VL: ENVLTQSPAIMSASPGEKVTMTCRASSTVNSTYLHWFQQKSGASPKLWIYGSSNLASGVPARFSGSGSGTSYSLTISSVEAEDAATYYCQQYSGYPLTFGAGTTLELK
binding [1]: binds

B4: 18F17 (antibody, V domains shown)
VH: QVTLKESGPGILQPSQTLSLTCSFSGFSLSTFGMGVGWIRQPSGKGLEWLAHIWWDDDKYYNPALKSRLTISKDTSKNQVFLKIANVDTADTATYYCAIYYDYGVGFDYWGQGTTLTVSS
VL: DIVMTQAAPSVPVTPGESVSISCRSSKSLLHSNGYTFLYWFLQRPGQSPQLLIYRMSNLASGVPDRFSGSGSGTAFTLRISRVEAEDVGVYYCMQHLEYPFTFGTGTKLEIK
binding (225-250 [16]): no binding (tested: 10 nM) | binding (245-265 [17]): no binding (tested: 10 nM) | binding (PSGL-1(305-320) [18]): no binding (tested: Log M -7.4 (about 40 nM)) | binding (63-80 [19]): no binding (tested: 10 nM) | binding (165-190 [20]): no binding (tested: 10 nM) | binding [21]: no binding (tested: 10 nM) | binding (PSGL-1(120-140) [22]): no binding (tested: 10 nM) | binding (275-295 [23]): no binding (tested: 10 nM) | binding (185-210 [24]): no binding (tested: 10 nM) | binding (260-280 [25]): no binding (tested: 10 nM) | binding (75-95 [26]): no binding (tested: 10 nM) | binding (205-230 [27]): no binding (tested: 10 nM) | binding (PSGL-1(90-110) [28]): no binding (tested: 10 nM) | binding (145-170 [29]): no binding (tested: 10 nM)

Source: US20220396632A1
